Reference: paper PMC8269055
These are yes or no findings as the source states them, for the method shown. Binding seen in cells or lysates may run through a third protein. Some entries that bind do so weakly or less than the wild type.

By UniProt entry, the sequences of proteins in these tests, tags left out.
UniProt Q14457: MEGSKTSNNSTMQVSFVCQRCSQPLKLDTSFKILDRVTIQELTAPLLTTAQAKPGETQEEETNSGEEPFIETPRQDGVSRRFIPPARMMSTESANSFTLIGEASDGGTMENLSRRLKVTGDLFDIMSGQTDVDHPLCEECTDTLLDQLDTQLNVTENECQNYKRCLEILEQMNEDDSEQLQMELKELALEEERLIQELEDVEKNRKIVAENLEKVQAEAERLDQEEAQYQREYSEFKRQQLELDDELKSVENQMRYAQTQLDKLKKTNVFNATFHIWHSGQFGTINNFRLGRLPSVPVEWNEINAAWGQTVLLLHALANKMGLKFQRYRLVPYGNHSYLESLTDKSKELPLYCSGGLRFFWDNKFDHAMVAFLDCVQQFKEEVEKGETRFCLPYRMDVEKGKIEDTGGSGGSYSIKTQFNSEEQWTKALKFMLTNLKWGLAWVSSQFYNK
UniProt P10415: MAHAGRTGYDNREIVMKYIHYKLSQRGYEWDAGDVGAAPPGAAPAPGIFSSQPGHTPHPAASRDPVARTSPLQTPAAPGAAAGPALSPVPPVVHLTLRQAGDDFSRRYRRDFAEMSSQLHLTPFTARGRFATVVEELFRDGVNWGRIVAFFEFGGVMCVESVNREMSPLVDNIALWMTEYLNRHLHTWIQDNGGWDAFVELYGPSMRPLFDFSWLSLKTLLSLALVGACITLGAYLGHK

Biological target: Beclin-1 (human (endogenous in pancreatic cancer cell lines)) (UniProt Q14457)
Assay: co-IP; pre-cleared lysates (1 mg/mL) of PC cells, untreated or treated with Nic (10 µM; 24 and 48 h), incubated with Beclin-1 antibody or isotype control antibody and protein A/G plus agarose beads overnight at 4 °C; washed with RIPA lysis buffer; blotted with anti-BCL2 or anti-Beclin1

- binding: binds
Substance: BCL2 (from UniProt P10415 1-239)
